Reference: PubChem BioAssay AID540256 (National Center for Advancing Translational Sciences (NCATS), 2011)
Where “and” joins values, the source holds several entries; their conditions need not be identical. Identical values can stand only once. Among all 300,000 compounds or so, about 3,700 (1.2%) were called active. The inconclusive results got no clear call from the source; some entries with a clear call stand among them for comparison. The call rests on the fitted dose curve; tested in HEK293 cells. Where the call is inconclusive, the potency comes from a doubtful curve fit.

experiment: qHTS for Inhibitors of binding or entry into cells for Lassa Virus; details: Lassa virus pseudotype entry inhibition, cell reporter; series mostly up to 37.9 µM; further: nearly all actives have a fitted effect of over 50% in size
Potency means the concentration at half of the fitted maximal effect.

| SMILES | Potency |
| --- | --- |
| CC(C)(C)c1ccc(NC(=O)Nc2ccc(OCC(=O)N3CCOCC3)cc2)cc1 | inconclusive: 8.91 µM [inhibitor, partial curve, poor fit] |
| CN(C(=O)COC(=O)c1ccc2c(c1)OCO2)C1CCCCC1 | inconclusive: 35.5 µM [activator, single point] |
| O=C(CCN1C(=O)c2ccccc2C1=O)Nc1ccc(-c2cn3ccsc3n2)cc1 | inconclusive: 35.5 µM [inhibitor, single point] |
| CCOc1ccccc1NC(=O)CSc1nccn1-c1ccc(Cl)cc1 | inactive |
| CC(=O)NC(Cc1c[nH]c2ccccc12)C(=O)OCC(=O)Nc1ccc2c(c1)OCO2 (centres undefined) | inactive |
| CCCn1c(=S)[nH]c2ccccc2c1=O | inconclusive: 22.4 µM [activator, partial curve, poor fit] |
| Nc1nc(N2CCCCC2)c(C=O)c(N2CCCCC2)n1 | inconclusive: 1.26 µM [inhibitor, single point] |
| COc1ccccc1C(c1nnnn1CCc1ccccc1)N1CCN(c2ccccc2)CC1 (centres undefined) | inconclusive: 6.51 µM [inhibitor, partial curve] |
| CCCCCOc1ccc(C(=O)N(Cc2ccco2)C2CCS(=O)(=O)C2)cc1 (centres undefined) | inconclusive: 23.1 µM [inhibitor, single point] |
| CC(CNC(=O)C1CCN(Cc2cc3ccccc3n2Cc2ccccc2)CC1)c1ccccc1 (centres undefined) | inconclusive: 8.91 µM [inhibitor, single point] |
| Cc1ccc2c(CC(=O)Nc3ccccc3C(F)(F)F)coc2c1C | inactive |
| COc1ccc(N=C2C(=Nc3ccc(OC)cc3)N(c3ccc(OC)cc3)C(=S)N2C)cc1 | inconclusive: 3.66 µM [inhibitor, full curve, poor fit] |
| Cc1c(Cl)cccc1NC(=O)CCn1c(=O)c2cccn2c2ccccc21 | inactive |
| CCOC(=O)NC(CC(=O)O)c1ccc(OC)c(OC)c1 (centres undefined) | inconclusive: 8.2 µM [activator, partial curve, poor fit] |
| COc1cc(NC(=O)CCS(=O)(=O)c2nc(-c3cccs3)cc(C(F)(F)F)n2)cc(OC)c1OC | inconclusive: 12.6 µM [inhibitor, partial curve, poor fit] |
| COc1cc(/C=C2/SC(=S)N(Cc3ccccc3)C2=O)ccc1OCC(=O)O | inactive |
| COc1ccccc1-c1noc(CSc2nc3ccc(C)cc3[nH]2)n1 | inconclusive: 7.08 µM [inhibitor, partial curve, poor fit] |
| O=C(CSc1nnc(COc2ccc(Cl)cc2)o1)NC1CC2CCC1C2 (centres undefined) | inconclusive: 20 µM [inhibitor, single point] |
| COc1ccc(C(=O)c2cn(Cc3ccc(C)cc3)c3cc4c(cc3c2=O)OCO4)cc1 | inconclusive: 25.1 µM [inhibitor, partial curve, poor fit] |
| COc1cccc(C2C(C(=O)Nc3ccccc3)=C(C)Nc3nc(-c4ccccc4)nn32)c1 (centres undefined) | inactive |
| CC(C)CC(=O)c1c[nH]c(C(=O)O)c1 | inactive |
| CCC(C)NC(=O)C1CCN(S(=O)(=O)c2cccs2)CC1 (centres undefined) | inconclusive: 2.59 µM [inhibitor, partial curve, poor fit] |

| SMILES | Potency |
| --- | --- |
| Oc1c(Br)cc(Br)cc1-c1nc2ccccc2s1 | inactive |
| Cc1ccccc1CSCCNC(=O)c1ccc(N(C)S(=O)(=O)c2ccccc2)cc1 | inconclusive: 18.3 µM [inhibitor, single point] |
| CS(=O)(=O)N(CC(=O)NCCSc1ccccc1)c1cc(C(F)(F)F)ccc1Cl | inactive |
| Cc1ccc2c(C)c(C(=O)N(C)CCC3CCCCO3)oc2c1C (centres undefined) | inconclusive: 15.8 µM [inhibitor, single point] |
| Cc1ccsc1C(=O)NNC(=O)c1ccccc1F | inconclusive: 0.501 µM [activator, full curve, poor fit] |
| CCOc1ccccc1Oc1cn[nH]c1-c1ccc(O)cc1O | inconclusive: 39.8 µM [inhibitor, partial curve, poor fit] |
| CCc1ccc(NC(=O)N2CCC(c3ccccc3)C2)cc1 (centres undefined) | inconclusive: 35.5 µM [inhibitor, single point] |
| COC(=O)C1=C(C)N(CCC(C)O)C(=O)N(C(C)=O)C1c1ccccc1 (centres undefined) | inconclusive: 0.006 µM [activator, full curve, poor fit] |
| COc1ccccc1CN1CCCC(C(=O)c2ccccc2OC)C1 (centres undefined) | inconclusive: 35.5 µM [inhibitor, single point] |
| COc1ccc2cc3cc(C(=O)NCCC(C)C)oc3nc2c1 | active: 3.55 µM |
| COc1ccc(NC(=O)CSc2c3c(nc4ccccc24)CCCC3)c(OC)c1 | inconclusive: 0.501 µM [inhibitor, full curve, poor fit] |
| COc1ccc(C(c2nnnn2Cc2cccs2)N2CCN(c3ccccc3)CC2)cc1OC (centres undefined) | inconclusive: 11.2 µM [inhibitor, partial curve] |
| Cc1ccc(S(=O)(=O)c2c(N)n(/N=C/c3ccco3)c3nc4ccccc4nc23)cc1 | inconclusive: 32.6 µM [inhibitor, single point] |
| CCOc1ccc(OCC)c(NC(=O)CN(c2ccc(C)cc2)S(=O)(=O)c2c(C)noc2C)c1 | inconclusive: 11.2 µM [inhibitor, partial curve, poor fit] |
| Cc1ccc(Oc2ccc(Oc3ccc(C)cc3)nn2)cc1 | inactive |
| CCCCn1nc(C(=O)Nc2ccc3c(c2)OCO3)c2ccccc2c1=O | inconclusive: 7.08 µM [inhibitor, partial curve] |
| CCCCCCCCCCCCCCC[C@H](O)[C@H](N)CO | inconclusive: 2.59 µM [inhibitor, full curve, poor fit] |
| COc1cc(CC(=O)Nc2ccccc2N2CCCCC2)cc(OC)c1OC | inconclusive: 22.4 µM [inhibitor, single point] |
| CCN(CC)c1cc(C)c2cc(NC(=O)/C=C/c3ccc(C)cc3)ccc2n1 | inactive |
| Cc1nc(-c2ccc(S(=O)(=O)N3CCN(C4c5ccccc5-c5ccccc54)CC3)s2)cs1 | inactive |
| CCOC(=O)N1CCN(C(=O)c2oc3ccc(S(=O)(=O)N4CCCCCC4)cc3c2C)CC1 | inconclusive: 6.31 µM [inhibitor, partial curve, poor fit] |
| COc1ccc(NC(=O)COC(=O)C2=COCCO2)cc1OC | inactive |

| SMILES | Potency |
| --- | --- |
| O=C(Nc1ccccc1-c1ccccc1)NC1CCN(CC(=O)N2CCOCC2)CC1 | inactive |
| CCC(O)c1c(-c2ccccc2)nn(C)c1Cl (centres undefined) | inconclusive: 5.01 µM [inhibitor, full curve, poor fit] |
| Cc1ccc(-c2nc(CS(=O)CC(=O)N3CCN(c4ccccc4)CC3)c(C)o2)cc1 (centres undefined) | inconclusive: 562 nM [inhibitor, full curve, poor fit] and inconclusive: 35.5 µM [inhibitor, partial curve, poor fit] |
| CSc1nnc(-c2sc3cc(C(F)(F)F)cnc3c2-c2ccccc2)n1C | inconclusive: 22.4 µM [inhibitor, partial curve, poor fit] |
| O=C(c1ccc(S(=O)(=O)NCc2ccco2)cc1)N1CCN(Cc2ccc3c(c2)OCO3)CC1 | inconclusive: 7.94 µM [inhibitor, partial curve, poor fit] |
| CC1CCC(C(C)C)C(OCC(O)CNC(C)c2ccccc2)C1 (centres undefined) | inconclusive: 35.5 µM [inhibitor, partial curve, poor fit] |
| Cc1cc(C)cc(N2C(=O)NC(=O)/C(=C\c3cccn3-c3ccc(Cl)cc3)C2=O)c1 | inconclusive: 35.5 µM [inhibitor, single point] |
| CCOc1ccc(/C=N/NC(=O)Cc2csc(Nc3cccc(C(F)(F)F)c3)n2)c(OCC)c1 | inconclusive: 35.5 µM [inhibitor, single point] |
| CC(=O)N1CCN(C(=S)c2cccc([N+](=O)[O-])c2)CC1 | inconclusive: 1.26 µM [inhibitor, single point] |
| CCOC(=O)c1sc(N)nc1C(F)(F)F | inactive |
| CC(C)COc1cccc(C(=O)NC(=S)NCc2cccnc2)c1 | inconclusive: 0.398 µM [inhibitor, full curve, poor fit] |
| CC(C)(C)c1ccc(S(=O)(=O)Nc2ccc(C(=O)N3CCCC3)cc2)cc1 | inconclusive: 8.91 µM [inhibitor, partial curve] |
| Cc1oc(-c2ccc3c(c2)OCCO3)cc1C(=O)NC(Cc1ccccc1)C(=O)O (centres undefined) | inactive |
| Cc1ccc2c(c1)c(-c1ccccc1)nc1nnnn12 | inconclusive: 3.16 µM [inhibitor, partial curve, poor fit] |
| Cc1c(C(=O)N2CC(C)OC(C)C2)[nH]c2ccc(Br)cc12 (centres undefined) | inconclusive: 5.62 µM [inhibitor, partial curve, poor fit] |
| Cc1ccc(N)c(C(=O)c2ccccc2)c1 | inconclusive: 14.6 µM [activator, single point] |
| COc1ccc(OC)c(-c2cc(C(=O)Nc3cc(C)n(Cc4ccc(Cl)cc4)n3)no2)c1 | inactive |
| Cc1cccc(C)c1-n1c(C)cc(/C=N/NC(=O)CSc2ncccn2)c1C | inconclusive: 12.6 µM [inhibitor, partial curve, poor fit] |
| Cc1cc(C)n(-c2nnc3n2N=C(c2c[nH]c4ccccc24)CS3)n1 | inconclusive: 5.62 µM [inhibitor, full curve, poor fit] |
| Cc1onc(-c2c(Cl)cccc2Cl)c1C(O)c1ccc(F)cc1 (centres undefined) | inconclusive: 7.08 µM [activator, full curve, poor fit] |
